The target of assay [1] is TgCEN2-C (TgCEN2 lacking the first 22 amino acids, residues 23-170) (Toxoplasma gondii). The assay can be described thus: SEC; Superdex 75 Increase 10/300 GL, 2 mg/mL protein, 50 mM Tris-HCl, 150 mM KCl pH 7.5, with 5 mM EGTA (apo-form); both purified. For orientation: Size exclusion chromatography separates by hydrodynamic size, large species first.
Assay [2] has the same target. The assay can be described thus: native gel or EMSA; native PAGE (12%) after 30 min at 25 °C with 2 mM CaCl2 or 2 mM EGTA; apo- and Ca2+-bound protein; both purified. For orientation: Mobility shift assays separate free from complexed probe on a gel.
Assay [3] has the same target. The assay can be described thus: turbidity (absorbance at 340 nm); 20 μM protein, 1 mM Ca2+, 20 mM Tris-HCl, 20 mM KCl pH 7.5 (0.5 mM DTT for TgCEN1), 37 °C, against time; both purified.
Assay [4] shares this target. The assay can be described thus: turbidity (absorbance at 340 nm); 20 μM protein, no Ca2+ (1 mM EGTA), 20 mM Tris-HCl, 20 mM KCl pH 7.5 (0.5 mM DTT for TgCEN1), 37 °C, against time; both purified.
Assay [5] has the same target. Nature of the assay: dynamic light scattering; 10 μM protein, 37 °C, before and after 1 mM CaCl2, high ionic strength as in the ANS experiments (50 mM Tris-HCl, 150 mM KCl pH 7.5); mean count rate followed (Figure S6B); both purified.
Assay [6] deals with TgCEN1-C (TgCEN1 lacking the first 21 residues, residues 22-169) (Toxoplasma gondii). The assay can be described thus: SEC; Superdex 75 Increase 10/300 GL, 2 mg/mL protein, 50 mM Tris-HCl, 150 mM KCl pH 7.5, with 5 mM EGTA (apo-form); both purified.
Assay [7] has the same target. Nature of the assay: native gel or EMSA; native PAGE (12%) after 30 min at 25 °C with 2 mM CaCl2 or 2 mM EGTA; apo- and Ca2+-bound protein; both purified.
Assay [8] shares this target. The assay can be described thus: turbidity (absorbance at 340 nm); 20 μM protein, 1 mM Ca2+, 20 mM Tris-HCl, 20 mM KCl pH 7.5 (0.5 mM DTT for TgCEN1), 37 °C, against time; both purified.
Assay [9] has the same target. The assay can be described thus: turbidity (absorbance at 340 nm); 20 μM protein, no Ca2+ (1 mM EGTA), 20 mM Tris-HCl, 20 mM KCl pH 7.5 (0.5 mM DTT for TgCEN1), 37 °C, against time; both purified.
For assay [10] the target is unchanged. Nature of the assay: dynamic light scattering; 10 μM protein, 37 °C, before and after 1 mM CaCl2, high ionic strength as in the ANS experiments (50 mM Tris-HCl, 150 mM KCl pH 7.5); mean count rate followed (Figure S6B); both purified.
Assay [11] addresses full-length TgCEN2 (Toxoplasma gondii centrin 2) (Toxoplasma gondii). The assay can be described thus: turbidity (absorbance at 340 nm); 20 μM protein, 1 mM Ca2+, 20 mM Tris-HCl, 20 mM KCl pH 7.5 (0.5 mM DTT for TgCEN1), 37 °C, against time; both purified.
For assay [12] the target is unchanged. The assay can be described thus: turbidity (absorbance at 340 nm); 20 μM protein, no Ca2+ (1 mM EGTA), 20 mM Tris-HCl, 20 mM KCl pH 7.5 (0.5 mM DTT for TgCEN1), 37 °C, against time; both purified.
Assay [13] deals with full-length TgCEN1 (Toxoplasma gondii centrin 1) (Toxoplasma gondii). The assay can be described thus: turbidity (absorbance at 340 nm); 20 μM protein, 1 mM Ca2+, 20 mM Tris-HCl, 20 mM KCl pH 7.5 (0.5 mM DTT for TgCEN1), 37 °C, against time; both purified.

By UniProt entry, the sequences of proteins in these tests, tags left out. Where a name states a change or a piece, a line headed by the entry shows the natural chain unless it says otherwise.
UniProt A0A125YZN2: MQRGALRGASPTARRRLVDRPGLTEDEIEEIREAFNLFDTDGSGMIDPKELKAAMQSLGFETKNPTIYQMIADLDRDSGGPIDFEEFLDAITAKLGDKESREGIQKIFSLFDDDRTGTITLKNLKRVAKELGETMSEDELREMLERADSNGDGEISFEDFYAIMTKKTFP
UniProt A0A125YHX7: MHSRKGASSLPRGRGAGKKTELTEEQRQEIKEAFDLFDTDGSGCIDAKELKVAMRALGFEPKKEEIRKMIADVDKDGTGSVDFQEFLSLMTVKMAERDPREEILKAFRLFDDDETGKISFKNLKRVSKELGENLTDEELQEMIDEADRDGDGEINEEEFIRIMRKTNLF

No constants are given. Whether binding was seen depends on the method and setting. Some binding calls cover weakened binding; strength is not graded here.

Take “TgCEN2-C (TgCEN2 lacking the first 22 amino acids, residues 23-170) (from UniProt A0A125YZN2 23-170) (domain or fragment)”: the binding entry in assay [1] is on record as “no binding (tested: 2 mg/mL)”; in assay [2] it was “no binding”; in [3] it was “no binding (tested: 20 μM)”; in assay [4] it was “no binding (tested: 20 μM)”; in assay [5], “no binding (tested: 10 μM)”.
On to “TgCEN1-C (TgCEN1 lacking the first 21 residues, residues 22-169) (from UniProt A0A125YHX7 22-169) (domain or fragment)”, for which the binding entry in assay [6] is “no binding (tested: 2 mg/mL)”; in assay [7] it was “no binding”; in [8], “no binding (tested: 20 μM)”; in assay [9], “no binding (tested: 20 μM)”; in [10], “no binding (tested: 10 μM)”.
Consider “full-length TgCEN2 (Toxoplasma gondii centrin 2) (from UniProt A0A125YZN2 1-170)”, for which the binding result in assay [11] and in [12] was “no binding (tested: 20 μM)” in each case.
For the substance “full-length TgCEN1 (Toxoplasma gondii centrin 1) (from UniProt A0A125YHX7 1-169)”, in [13], the binding entry is “binds”.

These data come from paper PMC7465447.
